Reference: publication PMC10948558
No constants are given. Whether binding was seen depends on the method and setting. Binding seen in cells or lysates may run through a third protein. Some results given as binding are weak or reduced against the parent protein; the word gives no strength.

Sequences of proteins named here, by UniProt entry; tags and fusion partners are left off.
UniProt Q96RU2: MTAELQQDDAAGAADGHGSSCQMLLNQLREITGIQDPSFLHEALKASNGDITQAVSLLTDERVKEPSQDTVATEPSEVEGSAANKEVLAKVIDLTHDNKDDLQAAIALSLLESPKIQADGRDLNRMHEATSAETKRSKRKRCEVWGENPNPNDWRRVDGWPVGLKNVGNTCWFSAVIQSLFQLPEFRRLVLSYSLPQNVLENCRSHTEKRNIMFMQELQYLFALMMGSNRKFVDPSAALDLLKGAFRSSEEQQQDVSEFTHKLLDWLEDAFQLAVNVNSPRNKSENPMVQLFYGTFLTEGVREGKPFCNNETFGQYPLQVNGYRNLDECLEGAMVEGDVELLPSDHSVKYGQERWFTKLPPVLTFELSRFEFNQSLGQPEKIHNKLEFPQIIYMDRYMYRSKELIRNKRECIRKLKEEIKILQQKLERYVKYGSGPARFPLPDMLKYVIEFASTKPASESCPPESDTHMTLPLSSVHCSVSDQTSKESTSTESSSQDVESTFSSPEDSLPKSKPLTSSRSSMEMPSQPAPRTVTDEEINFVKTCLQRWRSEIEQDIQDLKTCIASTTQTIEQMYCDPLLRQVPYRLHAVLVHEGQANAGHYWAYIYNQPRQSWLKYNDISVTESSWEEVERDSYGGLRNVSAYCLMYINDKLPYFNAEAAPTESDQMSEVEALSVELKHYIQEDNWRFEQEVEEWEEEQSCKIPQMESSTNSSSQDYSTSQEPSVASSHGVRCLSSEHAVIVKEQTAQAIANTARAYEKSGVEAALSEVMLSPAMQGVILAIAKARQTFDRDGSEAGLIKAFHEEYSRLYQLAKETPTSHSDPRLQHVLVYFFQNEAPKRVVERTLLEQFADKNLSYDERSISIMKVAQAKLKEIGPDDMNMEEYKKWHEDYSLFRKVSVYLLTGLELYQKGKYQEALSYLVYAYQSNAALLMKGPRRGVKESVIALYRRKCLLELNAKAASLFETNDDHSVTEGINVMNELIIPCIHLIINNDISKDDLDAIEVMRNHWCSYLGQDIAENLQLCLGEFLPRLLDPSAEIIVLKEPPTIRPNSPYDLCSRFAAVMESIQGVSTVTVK
UniProt Q9Y2H9: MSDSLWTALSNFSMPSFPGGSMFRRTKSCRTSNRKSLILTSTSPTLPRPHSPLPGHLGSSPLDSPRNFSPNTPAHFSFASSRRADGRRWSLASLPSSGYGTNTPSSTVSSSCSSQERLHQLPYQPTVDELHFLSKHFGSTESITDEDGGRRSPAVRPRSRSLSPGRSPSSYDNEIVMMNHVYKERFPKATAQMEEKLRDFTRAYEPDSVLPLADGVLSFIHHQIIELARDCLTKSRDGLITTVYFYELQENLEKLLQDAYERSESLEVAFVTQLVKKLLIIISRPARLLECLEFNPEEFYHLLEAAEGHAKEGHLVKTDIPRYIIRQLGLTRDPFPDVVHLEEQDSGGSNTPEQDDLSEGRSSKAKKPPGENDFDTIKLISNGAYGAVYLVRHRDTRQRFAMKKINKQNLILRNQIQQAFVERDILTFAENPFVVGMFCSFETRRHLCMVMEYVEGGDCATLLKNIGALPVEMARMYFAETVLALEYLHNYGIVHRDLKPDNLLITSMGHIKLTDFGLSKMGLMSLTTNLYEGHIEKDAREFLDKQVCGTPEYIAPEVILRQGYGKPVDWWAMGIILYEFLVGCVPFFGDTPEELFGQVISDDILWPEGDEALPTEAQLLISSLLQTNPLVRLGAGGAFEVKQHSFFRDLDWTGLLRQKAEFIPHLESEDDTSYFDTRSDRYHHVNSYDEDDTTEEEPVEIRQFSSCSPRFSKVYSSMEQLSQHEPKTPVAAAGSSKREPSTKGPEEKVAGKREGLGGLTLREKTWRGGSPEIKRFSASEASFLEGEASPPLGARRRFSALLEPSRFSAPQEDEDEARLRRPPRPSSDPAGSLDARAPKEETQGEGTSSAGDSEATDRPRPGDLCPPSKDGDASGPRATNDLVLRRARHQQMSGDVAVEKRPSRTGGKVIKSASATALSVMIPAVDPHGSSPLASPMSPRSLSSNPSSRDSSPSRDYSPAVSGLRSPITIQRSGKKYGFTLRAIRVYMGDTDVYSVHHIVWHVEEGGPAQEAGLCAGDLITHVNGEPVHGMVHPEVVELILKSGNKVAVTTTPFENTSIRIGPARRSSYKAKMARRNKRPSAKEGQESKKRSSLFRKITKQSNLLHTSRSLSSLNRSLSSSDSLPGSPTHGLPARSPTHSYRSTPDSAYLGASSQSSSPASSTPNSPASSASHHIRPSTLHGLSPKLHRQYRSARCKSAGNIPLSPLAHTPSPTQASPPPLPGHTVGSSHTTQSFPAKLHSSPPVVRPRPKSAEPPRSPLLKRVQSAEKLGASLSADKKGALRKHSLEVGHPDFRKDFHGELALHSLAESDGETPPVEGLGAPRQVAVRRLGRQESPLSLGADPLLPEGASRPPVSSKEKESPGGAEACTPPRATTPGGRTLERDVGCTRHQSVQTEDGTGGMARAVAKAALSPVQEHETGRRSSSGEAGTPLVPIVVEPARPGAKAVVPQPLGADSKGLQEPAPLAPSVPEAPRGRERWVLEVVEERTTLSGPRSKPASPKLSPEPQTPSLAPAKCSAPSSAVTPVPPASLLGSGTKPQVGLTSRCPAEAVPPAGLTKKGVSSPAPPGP

Target: USP28 (human (endogenous in A549)) (UniProt Q96RU2)
Test: co-IP; endogenous proteins in A549 lysate; IP with antibodies against USP28 or MAST1 at 4 °C overnight, protein agarose beads; IP lysis buffer 25 mM Tris-HCl pH 7.4, 150 mM NaCl, 1 mM EDTA, 1% NP-40, 5% glycerol; western blot

Substance: microtubule-associated serine/threonine kinase 1 (MAST1) (from UniProt Q9Y2H9 1-1570) (enzyme)
- binding: binds
